In PubChem BioAssay AID504444 (National Center for Advancing Translational Sciences (NCATS), 2011):
Hit rate of the full screen: of about 360,000 compounds, about 7,500 (2.1%) were called active. Inconclusive results, whose numbers are uncertain, are shown with a selection of clear calls. Calls follow the shape of the dose curve; as a rule, active = well fitted inhibition curve with a large enough effect; inconclusive = small, poorly fitted or top-dose-only effect, or effect the other way; inactive = flat fitted curve, though single readings scatter. Potencies beside an inconclusive call are fits to weak or partial responses and may not hold up.

test: Nrf2 qHTS screen for inhibitors; settings: A549 ARE-Fluc reporter, luciferase luminescence, 18-24 h; series mostly up to 46 µM; also: nearly all actives have a fitted effect of over 60% in size
Method in brief: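 Reporter: ARE-Fluc in A549. Exposure: 18-24 h, 37 °C, 5% CO2, 5% FBS OPTI-MEM. Readouts: fluorescent cytotoxicity (CellTiter-Fluor), then luminescent Nrf2 signal after BugLite.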
Potency is read from the fitted curve at half-maximal effect.

| Structure (SMILES) | Potency |
| --- | --- |
| COc1cccc(OCCN2CCN(c3ncnc4c3cnn4-c3ccccc3)CC2)c1 | inconclusive: 18.4 µM [falling, single point] |
| Cc1cccc2cc(CN(CC(C)C)S(=O)(=O)c3ccccc3)c(=O)[nH]c12 | inconclusive: 29.1 µM [falling, single point] |
| Cc1cc(=O)oc2cc(OC(=O)c3nn(C(C)C)c(=O)c4ccccc34)ccc12 | inactive |
| CC1Cc2cc(S(=O)(=O)NCCc3ccccc3)ccc2N1C(=O)C1CC1 (stereo unspecified) | inconclusive: 29.1 µM [falling, single point] |
| c1ccc(CSc2ccc(-c3ccco3)nn2)cc1 | inconclusive: 8.2 µM [activator, partial curve] |
| COc1ccc(Br)cc1[C@H]1[C@H]2C=CC[C@@H](C)[C@@H]2C(=O)N1Cc1ccccc1 | active: 20.6 µM |
| COc1ccc(C2c3[nH]c4ccccc4c3CCN2C(=O)c2cc3ncccn3n2)c(F)c1 (stereo unspecified) | inconclusive: 20.6 µM [falling, single point] |
| O=C(Nc1ccccc1C(=O)O)c1ccc(Br)o1 | inconclusive: 10.3 µM [activator, partial curve] |
| COc1ccccc1OCC(=O)Nc1cccc(-c2nnc(-c3ccco3)o2)c1 | inconclusive: 6.51 µM [activator, single point] |
| Cc1ccc(S(=O)(=O)N2CCN(Cc3csc(C)n3)CC2)cc1 | inactive |
| Nc1cc(-c2ccc(Br)cc2)nn1Cc1ccccc1 | active: 10.3 µM |
| O=c1c(Cl)c2oc3ccccc3nc-2c2ccccc12 | inconclusive: 16.4 µM [falling, partial curve, poor fit] |
| CCn1c(CSc2nc(C)cc(C)n2)nnc1SCC(=O)Nc1ccccc1 | inactive |
| C/C=C\C=C/C(=O)Nc1cccc(C2=NOC3(C2)C[C@H](C(N)=O)N(C(=O)CC)C3)c1 (stereo partly specified) | inactive |
| C(=C1c2ccccc2-c2ccccc21)c1ccncc1 | inconclusive: 29.1 µM [activator, single point] |
| CC1(C)Cc2c(sc3nc(N/N=C/c4ccccc4)[nH]c(=O)c23)CO1 | inactive |
| COC(=O)c1ccccc1NC(=O)C1CCN(S(=O)(=O)c2cc(C)ccc2OC)CC1 | inconclusive: 10.3 µM [falling, single point] |
| O=C(Nc1ccc2c(c1)OCCO2)C1CCN(C(=O)c2ccccc2)CC1 | inconclusive: 20.6 µM [activator, single point] |
| CC(C)S(=O)(=O)c1nsc2nc(=O)c(/C=C3\C=Nc4ccccc43)c(N)n12 | inconclusive: 16.4 µM [falling, partial curve, poor fit] |
| CC(C)Oc1cc(NC(=O)CSCC(=O)Nc2cccc(C(F)(F)F)c2)c(Cl)cc1Cl | inactive |
| CN(C)CCCN1C(=O)c2cccc3c([N+](=O)[O-])ccc(c23)C1=O | inactive |

Quoted at random: two compounds from above, in no set order.

| Structure (SMILES) | Potency |
| --- | --- |
| Nc1cc(-c2ccc(Br)cc2)nn1Cc1ccccc1 | active: 10.3 µM |
| CC(C)S(=O)(=O)c1nsc2nc(=O)c(/C=C3\C=Nc4ccccc43)c(N)n12 | inconclusive: 16.4 µM [falling, partial curve, poor fit] |

(listing goes on)

| Structure (SMILES) | Potency |
| --- | --- |
| Cc1ccc(N(Cc2ccccc2)C(=O)c2cccc(F)c2)cc1 | inconclusive: 13 µM [activator, partial curve, poor fit] |
| CCCn1c(=O)c2ccccc2n2c(SCCOc3ccccc3)nnc12 | inconclusive: 18.4 µM [falling, single point] |
| Fc1cc(NC(=S)NCc2ccc(CNC(=S)Nc3ccc(Cl)c(F)c3)cc2)ccc1Cl | inconclusive: 23.1 µM [falling, single point] |
| CCN(CCO)c1ncnc2c1sc1nc(CC(C)C)c3c(c12)CC(C)(C)OC3 | inconclusive: 14.6 µM [falling, partial curve, poor fit] |
| COc1ccccc1C(=O)N/N=C/c1ccc2c(c1)OCO2 | inconclusive: 6.51 µM [activator, partial curve] |
| CCN(CC)S(=O)(=O)c1cc(NC(=O)CCNC(=O)c2ccccc2Cl)ccc1C | inconclusive: 16.4 µM [falling, single point] |
| Cc1cccc(NC(=O)c2ccc3c(c2)C(=O)N(c2ccccc2C)C3=O)n1 | inconclusive: 14.6 µM [activator, partial curve, poor fit] |
| Cc1ccc(CNC(=O)Cn2cnc3c(NCc4ccccc4)ncnc32)o1 | inactive |
| Cc1ccc(F)cc1NS(=O)(=O)c1ccc(Cl)s1 | inconclusive: 25.9 µM [falling, partial curve] |
| Cc1[nH]n(C(N)=S)c(=O)c1N=Nc1ccc(Br)cc1 | inconclusive: 4.61 µM [activator, partial curve] |
| Cc1ccc(-n2c(SCC(=O)c3c(N)n(C)c(=O)n(C)c3=O)nc3sc4c(c3c2=O)CCCC4)c(C)c1 | inconclusive: 6.51 µM [falling, partial curve, poor fit] |
| COc1cccc(C2=NN(C(C)=O)C(c3cccs3)C2)c1 (stereo unspecified) | inconclusive: 8.2 µM [activator, partial curve, poor fit] |
| Cc1ccc2nc(N3C(=O)C(O)=C(C(=O)c4cc5ccccc5o4)C3c3cccs3)sc2c1 (stereo unspecified) | inconclusive: 4.61 µM [activator, full curve, poor fit] |
| CSCc1ccc(C(=O)NCCSc2ccc(Br)cc2)cc1 | inconclusive: 23.1 µM [activator, single point] |
| O=C(O)CC1=C(Nc2ccccc2)C(=O)N(c2ccccc2)C1c1ccc(Cl)cc1 (stereo unspecified) | inconclusive: 29.1 µM [activator, single point] |
| N/C(=N\OC(=O)c1ccc(Cl)cc1[N+](=O)[O-])c1cccnc1 | inconclusive: 29.1 µM [activator, single point] |
| N=c1c(C(=O)NCc2ccc3c(c2)OCO3)cc2c(=O)n3ccccc3nc2n1Cc1cccnc1 | inconclusive: 13 µM [falling, partial curve, poor fit] |
| O=C(Nc1ccc(-c2nc3ccccc3o2)cc1)c1ccc(N2CCOCC2)c([N+](=O)[O-])c1 | active: 16.4 µM |
| CC(=O)Oc1ccc(-c2cccc(C(=O)OCC(=O)Nc3ccccc3Oc3ccccc3)c2)cc1 | inconclusive: 32.6 µM [falling, single point] |
| CC(C)Cc1nc(C(N)=O)c2[nH]c(=O)n(-c3ccc(F)cc3)c2n1 | inactive |
